Results deposited as PubChem BioAssay AID743121 (NCATS, 2013).
Shown is an unselected part of about 26,000 reagents tested. Over the whole deposit, 167 (0.63%) got an active call. 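Calls are per gene from RSA p-values that are not deposited; an individual active-marked siRNA can sensitise only weakly.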 A number with no mark means an inactive call. The numbers tell different reagents against one gene apart.

Screen: 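Partners whose loss is lethal together with topoisomerase I blockade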 (primary screen)
Cell system: MDA-MB-231 cells, a human breast cancer line
Reagents: single siRNA against human genes, 20 nM siRNA (0.8 pmol per well)
Timing: 120 h (drug added 48 h after transfection, read 72 h later)
Challenge: camptothecin 20 nM (about EC30) for 72 h; vehicle 0.1% DMSO in parallel plates
Measurement: 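CellTiter-Glo ATP signal, scaled to control siRNA as percent viability; sensitisation given as log2 of untreated divided by camptothecin-treated viability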
Reading the numbers: log2 vehicle/camptothecin viability: higher = stronger sensitisation to camptothecin; viability with camptothecin and viability without drug: higher = more viable cells
Hit rule: 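Each gene scored by redundant siRNA activity (RSA) over its individual siRNA ratios; a gene is called active at p < 0.001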

| gene | reagent | log2 vehicle/camptothecin viability | viability with camptothecin (% of control) | viability without drug (% of control) |
| --- | --- | --- | --- | --- |
| OXTR | 1 | 0.0822 | 83.5 | 88.4 |
| OXTR | 2 | -0.391 | 75.2 | 57.4 |
| OXTR | 3 | -0.166 | 108 | 96.6 |
| OXTR | 4 | 0.153 | 47.8 | 53.1 |
| CDC42BPB | 1 | -0.568 | 105 | 71.2 |
| CDC42BPB | 2 | 0.0913 | 102 | 108 |
| CDC42BPB | 3 | -0.139 | 90.1 | 81.8 |
| CDC42BPB | 4 | -0.317 | 67.6 | 54.3 |
| BCL2A1 | 1 | -0.118 | 19.7 | 18.1 |
| BCL2A1 | 2 | -0.215 | 37.2 | 32 |
| BCL2A1 | 3 | -0.0152 | 96 | 95 |
| BCL2A1 | 4 | 0.346 | 52 | 66.1 |
| NOD1 | 1 | 0.0553 | 61 | 63.4 |
| NOD1 | 2 | -0.226 | 53.3 | 45.6 |
| NOD1 | 3 | -0.41 | 60 | 45.1 |
| NOD1 | 4 | 0.361 | 55.9 | 71.8 |
| KAT5 | 1 | -0.389 | 65.1 | 49.7 |
| KAT5 | 2 | -0.602 | 86.1 | 56.7 |
| KAT5 | 3 | -0.419 | 60.1 | 44.9 |
| LOC402036 (retired record) | 1 | -0.272 | 81.9 | 67.8 |
| LOC402036 (retired record) | 2 | -0.514 | 28.7 | 20.1 |
| LOC402036 (retired record) | 3 | -0.16 | 85 | 76.1 |
| PPP5C | 1 | 0.341 | 44.1 | 55.8 |
| PPP5C | 2 | -0.205 | 64.1 | 55.6 |
| PPP5C | 3 | -0.496 | 101 | 71.3 |
| PPP5C | 4 | -0.104 | 66.7 | 62.1 |
| LRRC17 | 1 | -0.303 | 86.6 | 70.2 |
| LRRC17 | 2 | -0.0685 | 115 | 110 |
| LRRC17 | 3 | -0.101 | 95.2 | 88.7 |
| LRRC17 | 4 | -0.268 | 51.3 | 42.6 |
| BMP1 | 1 | -0.267 | 104 | 86.2 |
| BMP1 | 2 | -0.00243 | 65 | 64.8 |
| BMP1 | 3 | -0.322 | 89.9 | 71.9 |
| JAKMIP1 | 1 | -0.0996 | 86.3 | 80.6 |
| JAKMIP1 | 2 | 0.336 | 42.3 | 53.4 |
| JAKMIP1 | 3 | -0.35 | 96.1 | 75.4 |
| JAKMIP1 | 4 | -0.735 | 53.4 | 32.1 |
| JAKMIP1 | 5 | -0.372 | 80.3 | 62 |
| PTPN20 | 1 | 0.158 | 69 | 77 |
| PTPN20 | 2 | -0.458 | 67.2 | 48.9 |
| PTPN20 | 3 | 0.0031 | 50.5 | 50.6 |
| PTPN20 | 4 | -0.473 | 104 | 75.2 |
| PSKH1 | 1 | 0.175 | 60 | 67.8 |
| PSKH1 | 2 | -0.332 | 87.7 | 69.7 |
| PSKH1 | 3 | -0.284 | 93.5 | 76.8 |
| PSKH1 | 4 | -0.255 | 58.2 | 48.8 |
| PDCD4 | 1 | -0.129 | 130 | 119 |
| PDCD4 | 2 | -0.329 | 75.8 | 60.4 |
| PDCD4 | 3 | -0.188 | 108 | 94.4 |
| PDCD4 | 4 | 0.027 | 66.7 | 67.9 |
| PAX3 | 1 | -0.216 | 87 | 74.9 |
| PAX3 | 2 | -0.386 | 20.6 | 15.8 |
| PAX3 | 3 | 0.106 | 53.8 | 57.9 |
| PAX3 | 4 | -0.502 | 31.5 | 22.2 |
| KDM5C | 1 | 0.175 | 65.1 | 73.5 |
| KDM5C | 2 | -0.23 | 56.1 | 47.9 |
| KDM5C | 3 | 0.249 | 45.9 | 54.6 |
| KDM5C | 4 | 0.0493 | 64.6 | 66.8 |
| CCNH | 1 | 0.00438 | 70.1 | 70.3 |
| CCNH | 2 | -0.427 | 53.6 | 39.9 |
| CCNH | 3 | -0.268 | 111 | 91.8 |
| GPR18 | 1 | -0.361 | 76.7 | 59.8 |
| GPR18 | 2 | -0.194 | 40.5 | 35.4 |
| GPR18 | 3 | -0.656 | 70.3 | 44.6 |
| GPR18 | 4 | -0.213 | 75.6 | 65.3 |
| KIT | 1 | -0.149 | 65.9 | 59.5 |
| KIT | 2 | -0.462 | 61.1 | 44.4 |
| KIT | 3 | -0.251 | 93.7 | 78.7 |
| KIT | 4 | -0.00268 | 113 | 113 |

As entered above.
Under “viability without drug (% of control)”, PSKH1 #2 has 69.7
BCL2A1 #1, viability with camptothecin (% of control) → 19.7
CCNH #1, viability with camptothecin (% of control) = 70.1
